Experimental data: patent publication US20070066800A1, “Apo2l(trail) receptor binding peptides and uses thereof” (priority 2003, published 2007)
The structures given here were assigned with low confidence; some may be wrong.

The chains behind the UniProt entries cited, without tags or fusion partners. A line that says so, or that is headed by a name, gives the form on record, which may keep a tag or linker. Residues count along the entry.
UniProt O00220, 24-239 with tags or gaps H141R/R209T: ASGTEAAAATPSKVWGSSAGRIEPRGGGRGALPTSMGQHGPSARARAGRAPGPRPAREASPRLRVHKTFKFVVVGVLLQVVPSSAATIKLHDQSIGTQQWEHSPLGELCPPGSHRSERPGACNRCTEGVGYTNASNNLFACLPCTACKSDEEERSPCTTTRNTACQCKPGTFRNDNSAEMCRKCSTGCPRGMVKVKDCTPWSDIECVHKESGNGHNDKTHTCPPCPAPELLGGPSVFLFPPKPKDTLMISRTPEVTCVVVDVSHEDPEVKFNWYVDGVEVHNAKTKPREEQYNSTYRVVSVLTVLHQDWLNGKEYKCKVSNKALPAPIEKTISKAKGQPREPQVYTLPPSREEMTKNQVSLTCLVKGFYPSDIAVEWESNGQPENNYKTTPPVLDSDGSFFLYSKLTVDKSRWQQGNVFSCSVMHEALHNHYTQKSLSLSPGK
UniProt P19438, 30-211 with tags or gaps: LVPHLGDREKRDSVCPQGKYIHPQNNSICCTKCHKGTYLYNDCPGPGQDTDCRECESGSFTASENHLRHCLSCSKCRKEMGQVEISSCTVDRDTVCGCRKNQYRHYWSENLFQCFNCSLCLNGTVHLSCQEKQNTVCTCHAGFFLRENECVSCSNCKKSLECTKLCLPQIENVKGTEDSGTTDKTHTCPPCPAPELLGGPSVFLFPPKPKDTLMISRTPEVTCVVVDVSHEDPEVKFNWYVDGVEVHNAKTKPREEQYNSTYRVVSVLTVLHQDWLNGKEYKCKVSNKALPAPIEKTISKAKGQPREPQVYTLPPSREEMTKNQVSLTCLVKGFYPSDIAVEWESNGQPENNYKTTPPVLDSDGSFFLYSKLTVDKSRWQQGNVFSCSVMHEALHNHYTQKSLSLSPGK
UniProt O14763, 56-184 with tags or gaps: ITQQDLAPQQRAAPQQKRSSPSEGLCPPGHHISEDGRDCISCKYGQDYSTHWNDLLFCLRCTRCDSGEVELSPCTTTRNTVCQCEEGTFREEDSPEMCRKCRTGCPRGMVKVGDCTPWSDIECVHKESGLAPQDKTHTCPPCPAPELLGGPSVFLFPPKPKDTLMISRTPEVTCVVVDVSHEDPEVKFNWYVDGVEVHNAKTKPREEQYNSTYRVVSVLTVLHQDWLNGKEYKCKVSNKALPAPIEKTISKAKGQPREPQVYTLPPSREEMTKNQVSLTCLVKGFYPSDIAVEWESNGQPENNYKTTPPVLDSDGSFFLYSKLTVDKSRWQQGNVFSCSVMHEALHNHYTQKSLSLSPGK
UniProt Q9UBN6, 56-199 with tags or gaps: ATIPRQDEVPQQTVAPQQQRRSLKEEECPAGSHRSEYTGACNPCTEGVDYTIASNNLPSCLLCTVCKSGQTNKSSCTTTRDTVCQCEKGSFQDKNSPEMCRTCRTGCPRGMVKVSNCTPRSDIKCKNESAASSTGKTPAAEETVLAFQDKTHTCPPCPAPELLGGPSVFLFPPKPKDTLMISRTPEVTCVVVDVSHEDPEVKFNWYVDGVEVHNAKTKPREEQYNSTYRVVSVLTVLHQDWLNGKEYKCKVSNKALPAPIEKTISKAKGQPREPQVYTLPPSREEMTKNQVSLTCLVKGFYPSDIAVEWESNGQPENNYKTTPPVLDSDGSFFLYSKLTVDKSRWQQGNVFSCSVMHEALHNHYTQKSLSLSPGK
UniProt O14798, 26-161 with tags or gaps: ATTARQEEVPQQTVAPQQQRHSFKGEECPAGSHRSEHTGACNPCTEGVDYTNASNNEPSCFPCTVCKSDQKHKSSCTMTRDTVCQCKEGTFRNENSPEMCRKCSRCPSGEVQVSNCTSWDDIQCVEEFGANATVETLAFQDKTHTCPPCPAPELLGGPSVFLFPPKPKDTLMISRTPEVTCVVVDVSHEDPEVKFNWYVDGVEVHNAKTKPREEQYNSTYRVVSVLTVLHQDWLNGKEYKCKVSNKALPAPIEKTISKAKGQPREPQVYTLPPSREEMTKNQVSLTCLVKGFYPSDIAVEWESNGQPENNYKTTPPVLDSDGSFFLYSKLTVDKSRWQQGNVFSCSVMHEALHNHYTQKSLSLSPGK

Tests used:
[1] = biological target: Hu DR4 IgG (SEQ ID NO: 108) (Homo sapiens, UniProt O00220, H141R/R209T); assay: Ic50 cross-reactivity ELISA, Hu DR4 IgG; format: binding; conditions: read-out: Hu DR4 IgG (SEQ ID NO: 108) Ic50; Table IV cross-reactivity; phage clones
[2] = system: Cyno DR4 IgG (SEQ ID NO: 111); assay: Ic50 cross-reactivity ELISA, Cyno DR4 IgG; format: binding; conditions: read-out: Cyno DR4 IgG (SEQ ID NO: 111) Ic50; Table IV cross-reactivity; phage clones
[3] = system: Cyno DR5 IgG (SEQ ID NO: 112); assay: Ic50 cross-reactivity ELISA, Cyno DR5 IgG; conditions: read-out: Cyno DR5 IgG (SEQ ID NO: 112) Ic50; Table IV cross-reactivity; phage clones
[4] = biological target: Hu TNFR IgG (SEQ ID NO: 110) (Homo sapiens, UniProt P19438); assay: Ic50 cross-reactivity ELISA, Hu TNFR IgG; format: binding; conditions: read-out: Hu TNFR IgG (SEQ ID NO: 110) Ic50; Table IV cross-reactivity; phage clones
[5] = biological target: Hu DR5 IgG (SEQ ID NO: 109) (Homo sapiens, UniProt O14763); assay: Ic50 cross-reactivity ELISA, Hu DR5 IgG; format: binding; conditions: read-out: Hu DR5 IgG (SEQ ID NO: 109) Ic50; Table IV cross-reactivity; phage clones
[6] = biological target: Hu DcR2 IgG (SEQ ID NO: 107) (Homo sapiens, UniProt Q9UBN6); assay: Ic50 cross-reactivity ELISA, Hu DcR2 IgG; format: binding; conditions: read-out: Hu DcR2 IgG (SEQ ID NO: 107) Ic50; Table IV cross-reactivity; phage clones
[7] = biological target: Hu DcR1 IgG (SEQ ID NO: 106) (Homo sapiens, UniProt O14798); assay: Ic50 cross-reactivity ELISA, Hu DcR1 IgG; format: binding; conditions: read-out: Hu DcR1 IgG (SEQ ID NO: 106) Ic50; Table IV cross-reactivity; phage clones

| IC50 [1] | IC50 [2] | IC50 [3] | IC50 [4] | IC50 [5] | IC50 [6] | IC50 [7] | SMILES |
| --- | --- | --- | --- | --- | --- | --- | --- |
| > 5 µM | > 5 µM | > 5 µM | > 5 µM | 3 nM | > 5 µM |  | CC(C)C[C@H](NC(=O)[C@H](CCCCN)NC(=O)[C@H](CO)NC(=O)[C@H](CS)NC(=O)[C@H](CCC(=O)O)NC(=O)[C@@H](NC(=O)[C@H](CC(C)C)NC(=O)[C@H](CS)NC(=O)[C@@H](NC(=O)[C@H](CCCNC(=N)N)NC(=O)CN)C(C)C)[C@@H](C)O)C(=O)N[C@@H](CCCNC(=N)N)C(=O)O |
| > 5 µM |  | > 5 µM | > 5 µM |  |  | 2 µM | CC(C)C[C@H](NC(=O)[C@H](CCCNC(=N)N)NC(=O)[C@H](CO)NC(=O)[C@H](CS)NC(=O)[C@H](CCC(=O)O)NC(=O)[C@@H](NC(=O)[C@H](CC(C)C)NC(=O)[C@H](CS)NC(=O)[C@@H](NC(=O)[C@H](CCCNC(=N)N)NC(=O)CN)C(C)C)[C@@H](C)O)C(=O)N[C@@H](CCCNC(=N)N)C(=O)O |
|  | > 5 µM | 1.1 µM |  |  | > 5 µM | > 5 µM | CC(C)C[C@H](NC(=O)[C@H](CCCCN)NC(=O)[C@H](CO)NC(=O)[C@H](CS)NC(=O)[C@H](CC(C)C)NC(=O)[C@@H](NC(=O)[C@H](CC(C)C)NC(=O)[C@H](CS)NC(=O)[C@@H](NC(=O)[C@H](CCCNC(=N)N)NC(=O)CN)C(C)C)[C@@H](C)O)C(=O)N[C@H](C(=O)O)[C@@H](C)O |
| > 5 µM | > 5 µM | 4.1 µM | > 5 µM |  |  |  | CC(C)C[C@H](NC(=O)[C@H](CCCNC(=N)N)NC(=O)[C@H](CO)NC(=O)[C@H](CS)NC(=O)[C@H](CC(C)C)NC(=O)[C@@H](NC(=O)[C@H](CC(C)C)NC(=O)[C@H](CS)NC(=O)[C@@H](NC(=O)[C@H](CCCNC(=N)N)NC(=O)CN)C(C)C)[C@@H](C)O)C(=O)N[C@H](C(=O)O)[C@@H](C)O |
| > 5 µM | > 5 µM | > 5 µM | > 5 µM |  | > 5 µM | > 5 µM | CC(C)C[C@H](NC(=O)[C@H](CCCCN)NC(=O)[C@H](CO)NC(=O)[C@H](CS)NC(=O)[C@H](CC(C)C)NC(=O)[C@@H](NC(=O)[C@H](CC(C)C)NC(=O)[C@H](CS)NC(=O)[C@@H](NC(=O)[C@H](CCCNC(=N)N)NC(=O)CN)C(C)C)[C@@H](C)O)C(=O)N[C@@H](CCCNC(=N)N)C(=O)O |
| > 5 µM | > 5 µM | > 5 µM | > 5 µM |  | > 5 µM | > 5 µM | CC(C)C[C@H](NC(=O)[C@H](CCCCN)NC(=O)[C@H](CO)NC(=O)[C@H](CS)NC(=O)[C@H](CCC(=O)O)NC(=O)[C@@H](NC(=O)[C@H](CC(C)C)NC(=O)[C@H](CS)NC(=O)[C@@H](NC(=O)[C@H](CCCNC(=N)N)NC(=O)CN)C(C)C)[C@@H](C)O)C(=O)N[C@H](C(=O)O)[C@@H](C)O |
| 5 µM |  | > 5 µM | > 5 µM |  | 1 µM | > 5 µM | CC(C)C[C@H](NC(=O)[C@H](CCCNC(=N)N)NC(=O)[C@H](CO)NC(=O)[C@H](CS)NC(=O)[C@H](CCC(=O)O)NC(=O)[C@@H](NC(=O)[C@H](CC(C)C)NC(=O)[C@H](CS)NC(=O)[C@@H](NC(=O)[C@H](CCCNC(=N)N)NC(=O)CN)C(C)C)[C@@H](C)O)C(=O)N[C@H](C(=O)O)[C@@H](C)O |
